In the supplement of paper PMC7238544 one finds transfection efficiency data, which are given here for eight compounds.

Structures can show the parent of a compound that is named as a salt. ± gives the standard deviation of the averaged measurements. The list shows a part of the results. The data scatter; read single values as rough.

The assay relates to hAMSC donor 1. Briefly: transfection efficiency (EGFP+ cells / Hoechst count) fold change vs vehicle control (ratio); hAMSC are human adipose-derived mesenchymal stem cells given an EGFP-luciferase plasmid by lipofection; higher = enhanced transfection. Particulars: priming compound concentration 13 µM.
Turning to `CN1CCC[C@H]1c1cccnc1` [Nicotine], the transfection efficiency turned out to be 1.49 ± 0.066.
As for `CC1(C)O[C@@H]2[C@@H](CO[C@@]3(COS(N)(=O)=O)OC(C)(C)O[C@@H]23)O1` [Topiramate], the transfection efficiency is 1.09 ± 0.36.
In the case of `Nc1ncnc2c1ncn2[C@@H]1O[C@H](CO)C[C@@H]1O` [3'-Deoxydenosine], the transfection efficiency was determined as 1.41 ± 0.62.
On to `O=C1c2c(O)cc(O)cc2O[C@H](c2ccc(O)c(O)c2)[C@H]1O` (racemic) [Taxifolin-(+/-)], for which the transfection efficiency turned out to be 0.949 ± 0.41.
The figure for `O=C(c1ccccc1)c1ccc2n1CCC2C(=O)O` (stereo not drawn) [Ketorolac tromethamine] is 1.29 ± 0.33; for `CC(=O)N[C@H]1[C@H]([C@H](O)[C@H](O)CO)OC(C(=O)O)=C[C@@H]1NC(=N)N` [Zanamivir hydrate] it is 1.6 ± 1.2; for `CCOc1cc(CC(=O)N[C@@H](CC(C)C)c2ccccc2N2CCCCC2)ccc1C(=O)O` [Repaglinide] it is 1.51 ± 0.36.
The figure for `CCn1cc(C(=O)O)c(=O)c2cc(F)c(N3CCN(C)CC3)cc21` [Pefloxacin mesylate] is 1.15 ± 0.46.
